Results as given in the supplement of paper PMC10849652.
The other results are listed elsewhere or left out.

Chains of the proteins cited; added tags and fusions are not shown. Lines headed by an entry give the natural chain unless they say otherwise; changes in a name come on top.
UniProt Q9UQ35: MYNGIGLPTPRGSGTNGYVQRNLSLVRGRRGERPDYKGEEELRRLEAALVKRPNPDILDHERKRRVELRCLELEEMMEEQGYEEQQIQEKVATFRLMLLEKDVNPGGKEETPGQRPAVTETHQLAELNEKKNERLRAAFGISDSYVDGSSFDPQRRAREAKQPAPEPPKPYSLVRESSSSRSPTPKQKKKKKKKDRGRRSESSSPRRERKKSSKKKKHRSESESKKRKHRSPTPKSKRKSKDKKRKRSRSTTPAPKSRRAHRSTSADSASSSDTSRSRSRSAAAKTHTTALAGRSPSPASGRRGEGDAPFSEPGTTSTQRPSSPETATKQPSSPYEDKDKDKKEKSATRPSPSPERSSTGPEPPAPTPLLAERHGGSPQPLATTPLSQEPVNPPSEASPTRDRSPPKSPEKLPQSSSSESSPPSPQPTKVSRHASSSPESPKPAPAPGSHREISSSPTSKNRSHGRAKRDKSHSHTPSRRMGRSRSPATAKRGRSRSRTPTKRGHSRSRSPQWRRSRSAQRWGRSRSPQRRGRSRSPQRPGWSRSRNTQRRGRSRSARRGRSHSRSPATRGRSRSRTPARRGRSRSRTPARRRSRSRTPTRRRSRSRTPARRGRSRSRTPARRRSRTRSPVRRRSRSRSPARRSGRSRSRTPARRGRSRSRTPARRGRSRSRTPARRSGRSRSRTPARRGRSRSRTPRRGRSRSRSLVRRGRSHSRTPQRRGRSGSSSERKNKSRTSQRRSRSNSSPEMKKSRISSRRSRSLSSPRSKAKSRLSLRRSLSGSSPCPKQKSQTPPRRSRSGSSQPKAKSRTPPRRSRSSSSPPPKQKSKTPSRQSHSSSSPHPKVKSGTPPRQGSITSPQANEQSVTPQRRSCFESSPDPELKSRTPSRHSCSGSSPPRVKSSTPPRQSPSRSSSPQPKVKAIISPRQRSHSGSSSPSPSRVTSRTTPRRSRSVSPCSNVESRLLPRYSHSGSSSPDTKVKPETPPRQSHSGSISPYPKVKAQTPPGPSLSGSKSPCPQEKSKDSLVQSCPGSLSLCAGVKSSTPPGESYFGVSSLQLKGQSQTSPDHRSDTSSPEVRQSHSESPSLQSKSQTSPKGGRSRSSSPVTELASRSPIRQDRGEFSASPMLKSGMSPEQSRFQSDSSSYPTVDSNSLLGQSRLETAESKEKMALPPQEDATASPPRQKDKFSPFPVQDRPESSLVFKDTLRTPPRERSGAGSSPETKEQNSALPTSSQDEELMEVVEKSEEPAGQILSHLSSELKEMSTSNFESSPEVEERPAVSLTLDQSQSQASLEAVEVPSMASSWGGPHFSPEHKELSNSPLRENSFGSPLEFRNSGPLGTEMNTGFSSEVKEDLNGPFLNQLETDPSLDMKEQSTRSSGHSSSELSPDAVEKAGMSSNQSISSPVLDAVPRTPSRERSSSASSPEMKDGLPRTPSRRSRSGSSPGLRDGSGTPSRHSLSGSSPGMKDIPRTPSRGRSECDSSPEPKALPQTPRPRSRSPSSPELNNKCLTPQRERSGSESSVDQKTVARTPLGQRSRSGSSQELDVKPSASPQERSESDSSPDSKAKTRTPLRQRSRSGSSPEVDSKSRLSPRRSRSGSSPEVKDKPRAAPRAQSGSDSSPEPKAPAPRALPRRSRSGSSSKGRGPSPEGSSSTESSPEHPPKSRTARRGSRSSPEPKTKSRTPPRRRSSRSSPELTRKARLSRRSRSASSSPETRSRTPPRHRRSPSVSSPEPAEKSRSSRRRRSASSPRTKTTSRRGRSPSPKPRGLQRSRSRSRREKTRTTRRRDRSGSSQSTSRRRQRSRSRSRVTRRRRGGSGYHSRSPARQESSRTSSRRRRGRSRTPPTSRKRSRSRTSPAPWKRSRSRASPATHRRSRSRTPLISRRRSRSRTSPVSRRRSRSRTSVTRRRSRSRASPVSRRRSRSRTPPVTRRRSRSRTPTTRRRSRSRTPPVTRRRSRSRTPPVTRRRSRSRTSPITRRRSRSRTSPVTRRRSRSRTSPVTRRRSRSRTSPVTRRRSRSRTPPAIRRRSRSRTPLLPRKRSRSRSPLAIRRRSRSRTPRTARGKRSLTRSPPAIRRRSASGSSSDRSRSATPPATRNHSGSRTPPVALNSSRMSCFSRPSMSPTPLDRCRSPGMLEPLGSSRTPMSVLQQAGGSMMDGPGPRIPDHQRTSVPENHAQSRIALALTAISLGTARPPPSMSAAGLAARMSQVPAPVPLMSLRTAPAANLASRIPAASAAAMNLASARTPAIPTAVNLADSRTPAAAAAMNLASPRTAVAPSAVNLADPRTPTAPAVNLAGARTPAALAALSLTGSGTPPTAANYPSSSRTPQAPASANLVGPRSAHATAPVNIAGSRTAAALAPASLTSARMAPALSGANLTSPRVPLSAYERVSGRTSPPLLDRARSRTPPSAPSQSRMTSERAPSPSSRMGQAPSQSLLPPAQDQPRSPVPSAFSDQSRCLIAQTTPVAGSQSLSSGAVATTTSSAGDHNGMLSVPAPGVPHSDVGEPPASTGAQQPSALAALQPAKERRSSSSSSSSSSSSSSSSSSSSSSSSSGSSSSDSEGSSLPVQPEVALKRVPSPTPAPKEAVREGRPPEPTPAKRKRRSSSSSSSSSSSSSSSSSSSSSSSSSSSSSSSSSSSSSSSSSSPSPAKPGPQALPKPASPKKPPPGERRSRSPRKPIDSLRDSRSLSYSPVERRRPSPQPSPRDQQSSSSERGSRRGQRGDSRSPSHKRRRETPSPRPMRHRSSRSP
UniProt Q13586, whole entry, looked up: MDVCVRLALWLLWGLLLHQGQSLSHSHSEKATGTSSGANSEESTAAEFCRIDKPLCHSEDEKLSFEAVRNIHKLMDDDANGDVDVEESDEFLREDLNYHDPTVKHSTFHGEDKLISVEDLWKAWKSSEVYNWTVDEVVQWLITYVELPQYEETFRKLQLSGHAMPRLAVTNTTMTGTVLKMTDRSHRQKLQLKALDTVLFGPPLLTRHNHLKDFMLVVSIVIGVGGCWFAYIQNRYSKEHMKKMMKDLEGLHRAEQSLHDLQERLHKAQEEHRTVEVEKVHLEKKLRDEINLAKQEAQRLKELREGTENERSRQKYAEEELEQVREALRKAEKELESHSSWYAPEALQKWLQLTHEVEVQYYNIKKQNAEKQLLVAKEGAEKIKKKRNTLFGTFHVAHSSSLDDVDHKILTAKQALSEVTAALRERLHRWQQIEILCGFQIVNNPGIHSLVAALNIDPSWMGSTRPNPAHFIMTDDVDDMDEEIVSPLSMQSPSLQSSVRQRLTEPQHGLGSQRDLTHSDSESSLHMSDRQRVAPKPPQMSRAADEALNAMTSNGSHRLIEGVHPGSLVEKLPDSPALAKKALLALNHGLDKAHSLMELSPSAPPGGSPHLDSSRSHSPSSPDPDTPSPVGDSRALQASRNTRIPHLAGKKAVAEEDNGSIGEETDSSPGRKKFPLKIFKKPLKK
UniProt Q8TCT7: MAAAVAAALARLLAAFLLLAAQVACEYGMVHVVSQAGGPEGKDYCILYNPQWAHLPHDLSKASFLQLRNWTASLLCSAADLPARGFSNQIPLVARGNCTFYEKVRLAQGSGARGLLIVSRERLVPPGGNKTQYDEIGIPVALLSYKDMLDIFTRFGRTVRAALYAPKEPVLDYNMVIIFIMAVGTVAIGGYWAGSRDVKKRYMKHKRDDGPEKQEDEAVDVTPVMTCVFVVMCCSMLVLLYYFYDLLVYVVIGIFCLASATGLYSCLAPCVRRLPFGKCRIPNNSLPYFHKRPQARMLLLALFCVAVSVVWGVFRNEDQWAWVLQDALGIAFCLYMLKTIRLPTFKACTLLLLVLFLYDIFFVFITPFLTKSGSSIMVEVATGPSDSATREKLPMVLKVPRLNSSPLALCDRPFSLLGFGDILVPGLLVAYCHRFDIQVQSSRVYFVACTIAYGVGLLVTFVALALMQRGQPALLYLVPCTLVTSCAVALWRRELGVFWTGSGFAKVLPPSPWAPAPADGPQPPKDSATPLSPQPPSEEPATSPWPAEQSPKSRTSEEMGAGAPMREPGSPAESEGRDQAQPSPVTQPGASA
UniProt Q15005: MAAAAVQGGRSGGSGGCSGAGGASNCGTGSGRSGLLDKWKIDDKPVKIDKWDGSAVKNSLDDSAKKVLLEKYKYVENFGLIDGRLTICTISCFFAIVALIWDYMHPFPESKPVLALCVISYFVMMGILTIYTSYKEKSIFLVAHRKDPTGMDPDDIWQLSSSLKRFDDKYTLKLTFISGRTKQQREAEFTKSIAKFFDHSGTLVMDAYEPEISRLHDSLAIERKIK
UniProt O95793: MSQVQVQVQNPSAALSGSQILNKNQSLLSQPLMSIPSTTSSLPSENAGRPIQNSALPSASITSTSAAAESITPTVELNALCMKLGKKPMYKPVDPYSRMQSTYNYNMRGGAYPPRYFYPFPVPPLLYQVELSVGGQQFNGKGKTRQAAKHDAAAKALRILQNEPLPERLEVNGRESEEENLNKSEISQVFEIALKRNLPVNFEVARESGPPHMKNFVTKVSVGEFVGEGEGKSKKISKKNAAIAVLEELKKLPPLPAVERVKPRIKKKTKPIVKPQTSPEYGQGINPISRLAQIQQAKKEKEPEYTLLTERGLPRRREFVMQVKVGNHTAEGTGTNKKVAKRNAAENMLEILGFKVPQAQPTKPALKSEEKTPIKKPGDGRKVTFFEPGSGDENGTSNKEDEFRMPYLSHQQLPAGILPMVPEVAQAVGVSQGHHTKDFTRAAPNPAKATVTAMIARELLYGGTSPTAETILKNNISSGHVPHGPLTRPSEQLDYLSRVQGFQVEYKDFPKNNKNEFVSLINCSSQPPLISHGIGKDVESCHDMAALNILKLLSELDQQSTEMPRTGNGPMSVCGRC
UniProt Q9HD15: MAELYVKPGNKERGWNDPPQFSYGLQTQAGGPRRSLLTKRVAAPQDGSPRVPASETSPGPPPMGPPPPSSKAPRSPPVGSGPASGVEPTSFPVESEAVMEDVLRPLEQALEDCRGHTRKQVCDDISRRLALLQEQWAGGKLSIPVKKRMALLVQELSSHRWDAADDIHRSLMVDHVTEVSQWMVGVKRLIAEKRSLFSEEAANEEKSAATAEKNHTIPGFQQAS
UniProt Q8NEF9: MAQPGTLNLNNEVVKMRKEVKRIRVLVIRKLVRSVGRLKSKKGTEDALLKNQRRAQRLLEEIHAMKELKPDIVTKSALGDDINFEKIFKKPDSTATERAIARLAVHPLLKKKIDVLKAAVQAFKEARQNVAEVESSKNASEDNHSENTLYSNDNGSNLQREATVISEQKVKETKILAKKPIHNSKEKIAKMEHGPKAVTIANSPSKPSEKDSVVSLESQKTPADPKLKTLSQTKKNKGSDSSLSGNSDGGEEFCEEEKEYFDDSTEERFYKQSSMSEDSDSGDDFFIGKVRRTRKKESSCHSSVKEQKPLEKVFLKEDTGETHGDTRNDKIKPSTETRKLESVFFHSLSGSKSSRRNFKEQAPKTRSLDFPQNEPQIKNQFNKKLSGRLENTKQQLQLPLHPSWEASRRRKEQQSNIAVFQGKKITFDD
UniProt P11831: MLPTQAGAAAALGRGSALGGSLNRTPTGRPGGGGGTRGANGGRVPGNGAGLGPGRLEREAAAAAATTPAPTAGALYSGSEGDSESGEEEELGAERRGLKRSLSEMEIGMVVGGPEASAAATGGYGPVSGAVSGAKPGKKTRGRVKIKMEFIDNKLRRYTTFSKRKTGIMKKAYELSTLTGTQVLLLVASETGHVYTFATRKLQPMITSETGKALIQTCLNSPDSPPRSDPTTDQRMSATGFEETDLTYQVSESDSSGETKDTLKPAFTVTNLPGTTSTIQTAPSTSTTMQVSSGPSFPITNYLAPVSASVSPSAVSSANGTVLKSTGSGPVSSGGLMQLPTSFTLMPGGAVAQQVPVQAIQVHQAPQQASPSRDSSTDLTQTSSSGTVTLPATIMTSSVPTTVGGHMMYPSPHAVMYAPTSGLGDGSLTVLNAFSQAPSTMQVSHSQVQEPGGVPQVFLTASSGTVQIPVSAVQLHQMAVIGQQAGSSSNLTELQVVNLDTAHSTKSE
UniProt Q86XZ4: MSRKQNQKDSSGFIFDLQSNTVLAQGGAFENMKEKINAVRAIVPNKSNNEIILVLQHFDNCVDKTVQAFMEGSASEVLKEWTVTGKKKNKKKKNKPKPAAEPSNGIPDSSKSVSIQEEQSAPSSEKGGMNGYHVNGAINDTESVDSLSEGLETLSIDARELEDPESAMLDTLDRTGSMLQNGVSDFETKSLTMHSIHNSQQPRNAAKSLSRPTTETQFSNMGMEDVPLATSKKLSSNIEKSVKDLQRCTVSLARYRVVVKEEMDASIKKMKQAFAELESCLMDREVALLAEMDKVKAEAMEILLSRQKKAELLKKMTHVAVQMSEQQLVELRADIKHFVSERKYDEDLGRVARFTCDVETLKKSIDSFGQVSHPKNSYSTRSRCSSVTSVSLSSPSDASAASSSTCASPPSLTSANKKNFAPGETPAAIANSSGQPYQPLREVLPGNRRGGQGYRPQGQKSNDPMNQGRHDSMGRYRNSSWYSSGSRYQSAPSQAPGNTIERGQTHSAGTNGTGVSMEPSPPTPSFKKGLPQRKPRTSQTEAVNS

Tests used:
Assay in all cases: log2 fold change, soluble protein after heating vs DMSO (PISA); higher = thermal stabilisation; K562 lysate, 10 uM; active = over 0.2 and 3.5 SD of the protein, either way, in both replicates (recomputed)
erlotinib = compound: C#Cc1cccc(Nc2ncnc3cc(OCCOC)c(OCCOC)cc23)c1 [erlotinib]
Outline: (§1)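 Soluble protein was defined as the supernatant remaining after 21,000xg for 90 min, following pooling of heated aliquots and adjustment to 0.5% NP-40 at 4°C. Before that, crude K562 extract at 1 mg/mL protein in PBS pH 7.4 with 1 mM MgCl2 was treated with 10 μM compound for 30 min and heated for 3 min across 48°C-58°C. Quantification used TMTpro 16plex LC-MS/MS with channel sums equalised, and values are log-two fold changes in thermal stability relative to solvent controls from duplicates.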

[1] = compound: C/C(=N\NC(=O)C1=CC(=CC=C1)S(=O)(=O)N2CCOCC2)/C3=C(C=CC(=C3)Cl)O
Outline: as §1

[2] = compound: C1=CC(=CC=C1C2=NC3=C(N2)C=C(C=C3)C(=O)N)OC4=CC=C(C=C4)Cl
Outline: as §1

[3] = compound: C1=CC2=C(C=CC(=C2)/C=C\3/C(=O)NC(=NCC4=CC=CS4)S3)N=C1
Outline: as §1

[4] = compound: C1=CC2=NC=CN=C2C=C1/C=C/3\C(=O)NC(=O)S3
Outline: as §1

[5] = compound: C1=CC=C(C=C1)C2=NC(=C(N2)C3=CC=NC=C3)C4=CC(=C(C=C4)Cl)O
Outline: as §1

[6] = compound: C1=CC=C2C(=C1)C3=NNC4=CC=CC(=C43)C2=O
Outline: as §1

[7] = compound: C1CCN(C1)C(=O)NC2=CC=CC(=C2)NC3=NC=C(C(=N3)NCCC4=CN=CN4)Br
Outline: as §1

[8] = compound: C1CN(CCC1(CC2=CC=C(C=C2)Cl)N)C3=NC=NC4=C3C=CN4
Outline: as §1

IRAK-1-4 Inhibitor I = compound: C1COCCN1CCN2C3=CC=CC=C3N=C2NC(=O)C4=CC(=CC=C4)[N+](=O)[O-] [IRAK-1-4 Inhibitor I]
Outline: as §1

ibrutinib = compound: C=CC(=O)N1CCC[C@@H](n2nc(-c3ccc(Oc4ccccc4)cc3)c3c(N)ncnc32)C1 [ibrutinib]
Outline: as §1

[9] = compound: CC(=O)c1cnc2ccc(-c3cc(Cl)c(O)c(Cl)c3)nc2c1N[C@H]1CC[C@H](CN(C)C)CC1
Outline: as §1

ralimetinib = compound: CC(C)(C)Cn1c(N)nc2ccc(-c3[nH]c(C(C)(C)C)nc3-c3ccc(F)cc3)nc21 [ralimetinib]
Outline: as §1

[10] = compound: CC(C)(O)CC(=O)NCCn1ccc2ncnc(Nc3ccc(Oc4cccc(C(F)(F)F)c4)c(Cl)c3)c21
Outline: as §1

[11] = compound: CC(C)C1=C2N=C(C=C(N2N=C1)NCC3=CC=CC=C3)NCCCCCCN
Outline: as §1

[12] = compound: CC1=C(C(CC(=O)N1)C2=CC=C(C=C2)C(F)(F)F)C(=O)NC3=C(C=C4C(=C3)C=NN4)F
Outline: as §1

[13] = compound: CC1=C(C2=C(C=C1)C(=O)C3=CC=CC=C3N2CCCN)C
Outline: as §1

[14] = compound: CC1=C(C=C(C=C1)NC(=O)C2=CC(=CC=C2)C(C)(C)C#N)NC3=CC4=C(C=C3)N=CN(C4=O)C
Outline: as §1

[15] = compound: CC1=C(C=C(C=C1)NC(=O)C2=CC(=CC=C2)N(C)C)NC(=O)C3=CC=C(C=C3)O
Outline: as §1

[16] = compound: CC1=CC=C(C=C1)SC2=C3C=C(SC3=CN=C2)C(=O)N
Outline: as §1

Measured: log2 fold change

SRRM2 (UniProt Q9UQ35)
inactive: erlotinib -0.024 | [1] -0.108 | [2] 0.03 | [3] 0.036 | [4] -0.087 | [5] -0.005 | [6] -0.019 | [7] -0.007 | [8] -0.002 | IRAK-1-4 Inhibitor I 0 | ibrutinib 0.07 | [9] -0.02 | ralimetinib 0.022 | [10] -0.024 | [11] 0.024 | [12] -0.003 | [13] -0.008 | [14] 0.05 | [15] 0.01 | [16] -0.011

STIM1 (UniProt Q13586)
inactive: erlotinib -0.037 | [1] 0.089 | [2] -0.014 | [3] 0.021 | [4] 0.001 | [5] -0.016 | [6] -0.059 | [7] -0.009 | [8] 0.005 | IRAK-1-4 Inhibitor I -0.01 | ibrutinib 0.033 | [9] 0.043 | ralimetinib 0.023 | [10] -0.021 | [11] 0.027 | [12] 0.003 | [13] 0.023 | [14] 0.001 | [15] 0.008 | [16] 0.027

SPPL2B (UniProt Q8TCT7)
inactive: erlotinib -0.018 | [1] 0.035 | [2] 0 | [3] 0.024 | [4] 0.038 | [5] 0.038 | [6] -0.078 | [7] 0.025 | [8] 0.045 | IRAK-1-4 Inhibitor I 0.067 | ibrutinib 0.064 | [9] 0.074 | ralimetinib -0.043 | [10] -0.066 | [11] -0.047 | [12] -0.007 | [13] -0.038 | [14] 0.031 | [15] 0.074 | [16] -0.015

SPCS2 (UniProt Q15005)
inactive: erlotinib -0.019 | [1] -0.023 | [2] 0.023 | [3] 0.058 | [4] 0.016 | [5] -0.006 | [6] 0.002 | [7] 0.049 | [8] 0.002 | IRAK-1-4 Inhibitor I -0.027 | ibrutinib -0.028 | [9] 0.008 | ralimetinib 0.001 | [10] 0 | [11] -0.058 | [12] 0 | [13] 0.027 | [14] -0.006 | [15] -0.01 | [16] 0.001

STAU1 (UniProt O95793)
inactive: erlotinib 0.02 | [1] -0.001 | [2] -0.032 | [3] 0.002 | [4] -0.016 | [5] -0.08 | [6] -0.007 | [7] -0.018 | [8] -0.003 | IRAK-1-4 Inhibitor I 0.055 | ibrutinib 0.043 | [9] -0.021 | ralimetinib 0.03 | [10] -0.011 | [11] 0 | [12] 0.017 | [13] -0.022 | [14] -0.037 | [15] 0.018 | [16] 0.022

SRA1 (UniProt Q9HD15)
inactive: erlotinib -0.002 | [1] -0.025 | [2] 0.001 | [3] -0.006 | [4] 0.001 | [5] -0.025 | [6] 0.032 | [7] -0.004 | [8] 0.04 | IRAK-1-4 Inhibitor I -0.001 | ibrutinib 0.046 | [9] 0.004 | ralimetinib 0.032 | [10] -0.04 | [11] -0.006 | [12] -0.054 | [13] -0.067 | [14] 0.023 | [15] 0.005 | [16] -0.023

SRFBP1 (UniProt Q8NEF9)
inactive: erlotinib -0.033 | [1] 0.031 | [2] 0.07 | [3] -0.001 | [4] 0.015 | [5] 0.019 | [6] 0.036 | [7] 0.008 | [8] -0.005 | IRAK-1-4 Inhibitor I 0.049 | ibrutinib 0.087 | [9] -0.001 | ralimetinib -0.007 | [10] -0.049 | [11] 0.007 | [12] 0.021 | [13] 0 | [14] -0.007 | [15] 0.012 | [16] -0.004

SRP14 (UniProt P37108)
inactive: erlotinib -0.006 | [1] -0.008 | [2] -0.005 | [3] -0.034 | [4] -0.006 | [5] 0.019 | [6] 0.018 | [7] 0.011 | [8] 0.001 | IRAK-1-4 Inhibitor I 0.001 | ibrutinib -0.021 | [9] -0.026 | ralimetinib -0.01 | [10] -0.03 | [11] 0.009 | [12] 0.08 | [13] -0.014 | [14] 0.006 | [15] 0.025 | [16] -0.022

SPEN (UniProt Q96T58)
inactive: erlotinib -0.031 | [1] -0.655 | [2] 0.031 | [3] 0.004 | [4] 0.101 | [5] 0.006 | [6] 0.037 | [7] 0.001 | [8] -0.035 | IRAK-1-4 Inhibitor I -0.084 | ibrutinib 0.168 | [9] 0.142 | ralimetinib 0.002 | [10] -0.077 | [11] 0.023 | [12] 0.049 | [13] -0.124 | [14] -0.01 | [15] 0.035 | [16] -0.004

SPTBN1 (UniProt Q01082)
inactive: erlotinib -0.007 | [1] 0.023 | [2] 0.006 | [3] -0.003 | [4] 0.007 | [5] 0.011 | [6] -0.016 | [7] -0.01 | [8] -0.015 | IRAK-1-4 Inhibitor I -0.004 | ibrutinib -0.002 | [9] -0.002 | ralimetinib 0.008 | [10] -0.023 | [11] -0.011 | [12] -0.003 | [13] 0.006 | [14] -0.004 | [15] 0.008 | [16] 0.011

STAT1 (UniProt P42224)
inactive: erlotinib 0.022 | [1] 0.018 | [2] -0.014 | [3] -0.009 | [4] 0.02 | [5] 0.022 | [6] -0.046 | [7] -0.014 | [8] 0.002 | IRAK-1-4 Inhibitor I 0.004 | ibrutinib -0.002 | [9] -0.026 | ralimetinib 0.03 | [10] 0.006 | [11] -0.002 | [12] 0 | [13] 0.029 | [14] 0.014 | [15] 0.039 | [16] 0.006

SPTA1 (UniProt P02549)
inactive: erlotinib -0.005 | [1] 0.033 | [2] -0.043 | [3] -0.015 | [4] 0.024 | [5] 0.016 | [6] 0.004 | [7] 0.006 | [8] 0.016 | IRAK-1-4 Inhibitor I -0.01 | ibrutinib -0.008 | [9] -0.004 | ralimetinib 0.025 | [10] 0.018 | [11] -0.023 | [12] 0.003 | [13] -0.017 | [14] -0.013 | [15] 0.033 | [16] 0.009

Copied from the entries so far (three entries):
SRFBP1 (UniProt Q8NEF9)
inactive: erlotinib -0.033 | [1] 0.031 | [2] 0.07 | [3] -0.001 | [4] 0.015 | [5] 0.019 | [6] 0.036 | [7] 0.008 | [8] -0.005 | IRAK-1-4 Inhibitor I 0.049 | ibrutinib 0.087 | [9] -0.001 | ralimetinib -0.007 | [10] -0.049 | [11] 0.007 | [12] 0.021 | [13] 0 | [14] -0.007 | [15] 0.012 | [16] -0.004

SRP14 (UniProt P37108)
inactive: erlotinib -0.006 | [1] -0.008 | [2] -0.005 | [3] -0.034 | [4] -0.006 | [5] 0.019 | [6] 0.018 | [7] 0.011 | [8] 0.001 | IRAK-1-4 Inhibitor I 0.001 | ibrutinib -0.021 | [9] -0.026 | ralimetinib -0.01 | [10] -0.03 | [11] 0.009 | [12] 0.08 | [13] -0.014 | [14] 0.006 | [15] 0.025 | [16] -0.022

SPEN (UniProt Q96T58)
inactive: erlotinib -0.031 | [1] -0.655 | [2] 0.031 | [3] 0.004 | [4] 0.101 | [5] 0.006 | [6] 0.037 | [7] 0.001 | [8] -0.035 | IRAK-1-4 Inhibitor I -0.084 | ibrutinib 0.168 | [9] 0.142 | ralimetinib 0.002 | [10] -0.077 | [11] 0.023 | [12] 0.049 | [13] -0.124 | [14] -0.01 | [15] 0.035 | [16] -0.004

Further entries follow:

SRF (UniProt P11831)
inactive: erlotinib -0.048 | [1] -0.167 | [2] 0.024 | [3] 0.044 | [4] -0.093 | [5] -0.028 | [6] 0.034 | [7] 0.024 | [8] -0.212 | IRAK-1-4 Inhibitor I 0.07 | ibrutinib -0.078 | [9] 0.223 | ralimetinib 0.041 | [10] -0.03 | [11] -0.002 | [12] 0.087 | [13] -0.035 | [14] -0.002 | [15] -0.038 | [16] -0.013

SPATS2 (UniProt Q86XZ4)
inactive: erlotinib -0.012 | [1] -0.127 | [2] -0.042 | [3] 0.028 | [4] -0.007 | [5] 0.017 | [6] -0.081 | [7] 0.063 | [8] 0.043 | IRAK-1-4 Inhibitor I -0.066 | ibrutinib -0.06 | [9] -0.069 | ralimetinib -0.018 | [10] 0.03 | [11] 0.111 | [12] 0.077 | [13] -0.061 | [14] -0.007 | [15] -0.046 | [16] -0.001

SPCS1, A0A5F9YFS9
inactive: erlotinib -0.031 | [1] -0.022 | [2] -0.047 | [3] 0.007 | [4] 0.03 | [5] 0.035 | [6] -0.082 | [7] -0.026 | [8] -0.075 | IRAK-1-4 Inhibitor I 0.015 | ibrutinib 0.111 | [9] 0.025 | ralimetinib 0.035 | [10] 0.012 | [11] -0.007 | [12] 0.035 | [13] 0.134 | [14] 0.024 | [15] 0.013 | [16] 0.032
